In patent US20140228299A1, “PROPHYLACTIC AND THERAPEUTIC AGENT FOR NEUROLOGICAL DISEASES USING LIPOPROTEINS AND PROPHYLACTIC AND THERAPEUTIC METHOD FOR NEUROLOGICAL DISEASES” (National University Corporation Tokyo Medical and Dental …, priority 2011, published 2014):
For at least one compound, name, drawing or mass did not settle the structure.

Test system: retinal ganglion cells
Assay: Glutamic acid-induced apoptosis of cultured retinal ganglion cells (Hoechst 33342 or calcein AM/propidium iodide staining)
Format: cell-based, rat
Settings: inhibitor 1 μM
Procedure: The primary culture of the retinal glia cells was carried out using two-day-old Sprague Dawley (SD) baby rats in accordance with a somewhat modified method (Hayashi et al., J. Biol. Chem. 2009) of the method of Barres et al. (Barres, et al., 1988). […]
The induction and detection of apoptosis in RGC were performed in the manner as described below. […] The fluorescence images were observed by Olympus IX71 microscope. The fragmented or aggregated nuclei stained with the above Hoechst reagent were counted as apoptotic nuclei, and round and smooth nuclei were counted as sound nuclei. As the sound nuclei were not stained with propidium iodide, the nuclei stained with propidium iodide were counted as apoptotic nuclei. More than 300 nuclei were counted in each group.
The apoptosis of RGC was measured in the following manner. […]

## C=CC[C@@H]1/C=C(\C)C[C@H](C)C[C@H](OC)[C@H]2O[C@@](O)(C(=O)C(=O)N3CCCC[C@H]3C(=O)O[C@H](/C(C)=C/[C@@H]3CC[C@@H](O)[C@H](OC)C3)[C@H](C)[C@@H](O)CC1=O)[C@H](C)C[C@@H]2OC [FK 506]
  apoptosis of retinal cells induced by glutamic acid (apoptosis-like cells): inhibition of apoptosis
